In the assay the target is G protein-coupled receptor kinase 2 (GRK2), wild type (UniProt P25098). As to the kind of experiment: co-IP; HEK293T cells co-transfected with β3AR, HA-Gαs and wild type GRK2, stimulated with 10 µM BRL37344; cross-linking in intact cells with 2.5 mM DSP (30 min, 25°C); lysis in RIPA buffer at 4°C; GRK2 immunoprecipitated with anti-GRK2 antibody and Protein A/G Plus-Agarose; cross-linker cleaved; co-precipitated HA-Gαs detected by anti-HA western blot.

Amino acid sequences for entries named in this document (tags omitted).
UniProt P25098: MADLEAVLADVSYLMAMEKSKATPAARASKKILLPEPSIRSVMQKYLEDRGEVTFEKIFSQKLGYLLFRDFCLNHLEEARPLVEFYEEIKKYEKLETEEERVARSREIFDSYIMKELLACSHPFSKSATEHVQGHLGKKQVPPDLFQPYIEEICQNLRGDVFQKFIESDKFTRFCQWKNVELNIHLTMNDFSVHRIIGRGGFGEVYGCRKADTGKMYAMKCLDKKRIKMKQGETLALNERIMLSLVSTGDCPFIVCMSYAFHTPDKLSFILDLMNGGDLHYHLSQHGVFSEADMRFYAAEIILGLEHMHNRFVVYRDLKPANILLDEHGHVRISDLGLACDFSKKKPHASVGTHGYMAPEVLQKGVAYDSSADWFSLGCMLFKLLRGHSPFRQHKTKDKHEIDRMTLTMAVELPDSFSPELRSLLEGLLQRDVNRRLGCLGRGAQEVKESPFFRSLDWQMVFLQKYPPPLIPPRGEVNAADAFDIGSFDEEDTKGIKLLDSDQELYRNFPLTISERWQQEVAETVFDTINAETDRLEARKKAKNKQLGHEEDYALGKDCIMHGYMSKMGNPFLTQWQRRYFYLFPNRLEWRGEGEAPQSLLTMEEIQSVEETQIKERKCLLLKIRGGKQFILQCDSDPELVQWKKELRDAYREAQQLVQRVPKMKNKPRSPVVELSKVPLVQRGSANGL
UniProt P63092: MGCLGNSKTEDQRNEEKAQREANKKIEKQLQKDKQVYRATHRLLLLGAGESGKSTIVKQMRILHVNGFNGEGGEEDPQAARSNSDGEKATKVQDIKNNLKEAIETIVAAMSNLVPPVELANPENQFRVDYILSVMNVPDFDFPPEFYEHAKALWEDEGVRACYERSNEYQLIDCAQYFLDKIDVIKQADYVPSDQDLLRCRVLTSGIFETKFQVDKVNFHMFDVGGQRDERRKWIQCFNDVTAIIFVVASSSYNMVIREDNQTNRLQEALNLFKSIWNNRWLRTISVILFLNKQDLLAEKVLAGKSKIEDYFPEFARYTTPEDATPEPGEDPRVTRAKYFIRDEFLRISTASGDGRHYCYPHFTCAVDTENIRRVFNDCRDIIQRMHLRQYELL

No constants are given. Whether binding was seen depends on the method and setting. In cells and extracts the contact can be indirect. Some results given as binding are weak or reduced against the parent protein; the word gives no strength.

The record followed here is paper PMC7047201.

Take “HA-tagged Gαs subunit (from UniProt P63092 1-394)”: the binding entry is “binds”.
